The values below come from article PMC7382467.

For at least one entry, the source does not settle the construct or the ends of the probe.

The subject of this data set is CMG helicase (Cdc45/Mcm2-7/GINS), unlabelled (Drosophila melanogaster). In words: competition (read out by fork unwinding). The conditions noted are these: excess dT40 prevents CMG binding to ForkdsLag and unwinding; CMG-binding buffer: 25 mM HEPES pH 7.5, 5 mM NaCl, 10 mM Mg acetate, 5 mM DTT, 0.1 mg/ml BSA (0.8 mg/ml casein in single-molecule work); ATPgS 0.1-0.3 mM for loading; recombinant protein; protein details: Flag on Mcm3; single-stranded DNA.

Consider “TTTTTTTTTTTTTTTTTTTTTTTTTTTTTTTTTTTTTTTT [dT40 (Oligo-6)]”, for which the binding result is recorded as “binds”.
